Measured values from paper PMC6453917 (Scientific Reports, 2019).

Assay: general procedure: Fmoc solid-phase peptide synthesis; Tentagel-S-NH2 resin, 0.26 mmol/g, functionalized with Fmoc-Rink amide linker; TBTU/HOBt/DIPEA; HATU/DIPEA for DPra and DAza
Details: whole synthesis, TFA salt; for final LC-MS purity: analytical UPLC-MS, scale of the general procedure 0.1 mmol; for isolated yield: overall, scale 0.1 mmol

Substance	final LC-MS purity	isolated yield
H-Y[dDap(N3)]GF[dPra]-NH2 (triazole 2-5; SMILES NC(=O)[C@H]1Cc2cn(nn2)C[C@@H](NC(=O)[C@@H](N)Cc2ccc(O)cc2)C(=O)NCC(=O)N[C@@H](Cc2ccccc2)C(=O)N1)	≥95%	12% overall yield
H-Y[dPra]GF[dDap(N3)]-NH2 (triazole 2-5; SMILES NC(=O)[C@H]1Cn2cc(nn2)C[C@@H](NC(=O)[C@@H](N)Cc2ccc(O)cc2)C(=O)NCC(=O)N[C@@H](Cc2ccccc2)C(=O)N1)	≥95%	15% overall yield

Bridges are numbered along the chain shown (N, C = ends). Triazole bridges read from a SMILES are 1,4-linked. [ ]: non-standard residue; d: D form. dDap(N3) = [N-]=[N+]=NC[C@@H](N)C(=O)O; dPra = C#CC[C@@H](N)C(=O)O
